From PubChem BioAssay AID493203 (National Center for Advancing Translational Sciences (NCATS), 2011)
The shares of active, inactive and inconclusive entries below differ from those in the screen. A potency beside an inconclusive call is a rough fit, not a confirmed value. Activity calls are given as the source filed them. Calls come from the whole dose curve; as a rule, active = well fitted activation curve with a large enough effect; inconclusive = small, poorly fitted or top-dose-only effect; inactive = flat fitted curve, though single readings scatter.

test: qHTS Assay for NPC1 Promoter Activators: Initial hit validation from the primary screen; conditions: Huh7 NPC1 promoter-luciferase reporter, luminescence, 24 h
Method in brief: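 Promoter activation measured as luciferase luminescence (Amplite reagent, 10 minutes ambient) after 24 hours' compound exposure at 37C. Cells: NPC1-luciferase Huh7, 1500 per well, reduced-serum OP-MEM I plus 10% FBS.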
Potency is the fitted concentration of half-maximal effect.

**Q.** For `FC(F)(F)c1ccc(Nc2nnnc3ccccc23)cc1`, which Potency is on record?
**A.** The Potency was inconclusive: 99.6 µM [activator, partial curve].

**Q.** For `CCCc1cc(C(=O)Nc2ccccc2SC)no1`, which Potency is on record?
**A.** The Potency was inconclusive: 39.7 µM [activator, partial curve].

**Q.** With `CC1CCCN(C(=S)Nc2ccc(Nc3ccccc3)cc2)C1` (stereo not given) as the molecule, how does the Potency read?
**A.** Its Potency is inconclusive: 49.9 µM [activator, partial curve].

**Q.** With `CCOC(=O)c1ccc(NC(=O)Oc2cc(C)c(Cl)cc2C(C)C)cc1` as the molecule, how does the Potency read?
**A.** The Potency was inconclusive: 12500 µM [activator, partial curve, poor fit].

**Q.** For `CCOc1cc(C(=O)N=c2sccn2C)ccc1OC(F)F`, which Potency is on record?
**A.** Its Potency is inconclusive: 158 µM [activator, partial curve, poor fit].

**Q.** For `Cc1ccc(S(=O)(=O)N2CCN(c3cnn(C)c(=O)c3Cl)CC2)cc1`, which Potency is on record?
**A.** Its Potency is “inactive”.

**Q.** Which Potency does the source give for `O=S(=O)(c1cccs1)N1CCN(c2ncccn2)CC1` here?
**A.** The Potency was “inactive”.

**Q.** Which Potency does the source give for `Cc1nnc2n(c1=O)N=C(c1ccc(Cl)cc1)CS2` here?
**A.** Its Potency is active: 1.12 µM.

**Q.** With `CC(=O)Nc1nnc(SCC(=O)NCCOc2ccccc2)s1` as the molecule, how does the Potency read?
**A.** Its Potency is “inactive”.

**Q.** With `COCCSc1ncnc2c1oc1nc3c(cc12)COC(C)(C)C3` as the molecule, how does the Potency read?
**A.** The Potency was inconclusive: 199 µM [activator, partial curve, poor fit].

**Q.** Which Potency does the source give for `COc1ccc(NC(=S)NNC(=O)c2cccs2)cc1` here?
**A.** The Potency was inconclusive: 49.9 µM [activator, partial curve].

**Q.** For `COc1ccc(-n2cc(-c3ccc(Cl)cc3)[nH]c2=S)cc1`, which Potency is on record?
**A.** Its Potency is inconclusive: 1.41 µM [activator, full curve].

**Q.** Which Potency does the source give for `Cc1ccc2nc(Nc3ccc(Cl)cc3)c3nncn3c2c1` here?
**A.** The Potency was “inactive”.

**Q.** For `CC(C)CC(=O)N1CCN(c2ccc(NC(=O)c3ccco3)cc2)CC1`, which Potency is on record?
**A.** Its Potency is inconclusive: 250 µM [activator, partial curve, poor fit].

**Q.** With `Cc1nc2sc(C(=O)OC(C)C)c(N)c2c(C)c1C` as the molecule, how does the Potency read?
**A.** Its Potency is inconclusive: 19.9 µM [activator, partial curve].

**Q.** With `O=C(CSc1ncccn1)Nc1cccc2ccccc12` as the molecule, how does the Potency read?
**A.** The Potency was inconclusive: 125 µM [activator, partial curve, poor fit].

**Q.** With `CN(C)/C=N/c1c(C#N)cnn1-c1nc2ccccc2s1` as the molecule, how does the Potency read?
**A.** Its Potency is “inactive”.

**Q.** For `NC(=O)COC(=O)c1ccc2noc(-c3ccccc3)c2c1`, which Potency is on record?
**A.** Its Potency is inconclusive: 31.5 µM [activator, partial curve].

**Q.** For `CCC1CCCCN1CCCNC(=O)c1ccc2nc(N3CCCCC3)sc2c1` (stereo not given), which Potency is on record?
**A.** Its Potency is inconclusive: 0.177 µM [activator, full curve].

**Q.** With `COc1ccc(-c2noc(N3CCCC(C(=O)Nc4ccccc4F)C3)n2)cc1` (stereo not given) as the molecule, how does the Potency read?
**A.** Its Potency is inconclusive: 62.8 µM [activator, partial curve].

**Q.** Which Potency does the source give for `Cc1ccc(C(=O)c2cn[nH]c2-c2ccccc2O)cc1` here?
**A.** The Potency was inconclusive: 49.9 µM [activator, partial curve].

**Q.** For `OCCC1CN(Cc2nc3ccccc3s2)CCN1C1CCCC1` (stereo not given), which Potency is on record?
**A.** The Potency was “inactive”.

**Q.** With `O=C(CSc1nccn1Cc1ccco1)Nc1ccccc1F` as the molecule, how does the Potency read?
**A.** The Potency was inconclusive: 125 µM [activator, partial curve].

**Q.** For `COc1ccc(NC(=O)c2cc3ccccc3o/c2=N\NS(=O)(=O)c2ccc(C)cc2)cc1`, which Potency is on record?
**A.** Its Potency is inconclusive: 0.705 µM [activator, full curve].

**Q.** Which Potency does the source give for `CCCCCCOc1ccc(OC(=O)c2cccnc2)cc1` here?
**A.** The Potency was active: 19.9 µM.
